Reference: patent US20220112270A1
No constants are given. Whether binding was seen depends on the method and setting. Some binding calls cover weakened binding; strength is not graded here.

Chains of the proteins cited; added tags and fusions are not shown. Residues count along the entry.
UniProt P00772, residues 27-266: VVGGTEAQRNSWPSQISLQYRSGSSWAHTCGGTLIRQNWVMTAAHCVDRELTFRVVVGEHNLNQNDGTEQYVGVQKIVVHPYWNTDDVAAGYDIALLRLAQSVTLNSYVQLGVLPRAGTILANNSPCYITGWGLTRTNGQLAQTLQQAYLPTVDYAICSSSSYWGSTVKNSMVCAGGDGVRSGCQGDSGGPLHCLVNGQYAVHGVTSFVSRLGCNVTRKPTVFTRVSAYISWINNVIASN
UniProt P01009, residues 25-418: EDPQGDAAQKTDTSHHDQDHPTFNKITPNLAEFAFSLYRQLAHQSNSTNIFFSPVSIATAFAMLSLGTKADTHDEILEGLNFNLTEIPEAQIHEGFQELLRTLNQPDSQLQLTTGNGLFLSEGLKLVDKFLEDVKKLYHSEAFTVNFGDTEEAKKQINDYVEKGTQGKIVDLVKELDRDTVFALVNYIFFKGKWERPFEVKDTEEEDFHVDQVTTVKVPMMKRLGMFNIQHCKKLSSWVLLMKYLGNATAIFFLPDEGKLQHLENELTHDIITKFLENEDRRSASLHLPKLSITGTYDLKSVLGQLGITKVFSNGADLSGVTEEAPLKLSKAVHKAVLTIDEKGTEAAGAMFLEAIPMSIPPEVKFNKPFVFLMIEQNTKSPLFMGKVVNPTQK

Tests used:
[1] = molecular target: pancreatic elastase (E7885; Sigma Aldrich) (UniProt P00772); test: SDS-PAGE of reaction mixes
[2] = molecular target: pancreatic elastase (E7885; Sigma Aldrich) (UniProt P00772); test: 7.5% SDS-PAGE, Coomassie Brilliant Blue R350
[3] = molecular target: pancreatic elastase (E7885; Sigma Aldrich) (UniProt P00772); test: 7.5% SDS-PAGE of AAT incubated with elastase (FIG. 11D, Lane 2)
[4] = molecular target: pancreatic elastase (E7885; Sigma Aldrich) (UniProt P00772); test: 7.5% SDS-PAGE of AAT incubated with elastase (FIG. 11D, Lane 4)
[5] = molecular target: pancreatic elastase (E7885; Sigma Aldrich) (UniProt P00772); test: complex formation, SDS-PAGE (FIG. 11D)

binding [1]	binding [2]	binding [3]	binding [4]	binding [5]	Substance
binds	binds	binds			plasma-derived human alpha 1-antitrypsin (AAT) (from UniProt P01009 25-418)
binds	binds		binds	binds	recombinant human alpha 1-antitrypsin (AAT) derived from recombinant CHO cells (from UniProt P01009 25-418)
